Reference: article PMC7725797
No constants are given. Whether binding was seen depends on the method and setting. Some binding calls cover weakened binding; strength is not graded here.

Protein sequences, listed by entry. Tags and fused reporters are not part of them. Residues count along the entry.
UniProt P26022, residues 18-381: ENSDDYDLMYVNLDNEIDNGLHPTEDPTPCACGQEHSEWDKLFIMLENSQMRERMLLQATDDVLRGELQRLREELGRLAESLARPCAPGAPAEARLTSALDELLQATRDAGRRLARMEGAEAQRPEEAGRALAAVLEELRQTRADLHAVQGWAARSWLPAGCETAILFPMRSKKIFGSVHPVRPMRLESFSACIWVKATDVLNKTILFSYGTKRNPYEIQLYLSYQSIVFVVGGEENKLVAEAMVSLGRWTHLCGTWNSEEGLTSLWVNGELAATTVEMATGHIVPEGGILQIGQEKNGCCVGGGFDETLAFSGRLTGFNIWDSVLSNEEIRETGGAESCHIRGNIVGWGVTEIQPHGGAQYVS
UniProt P08603, residues 19-1231: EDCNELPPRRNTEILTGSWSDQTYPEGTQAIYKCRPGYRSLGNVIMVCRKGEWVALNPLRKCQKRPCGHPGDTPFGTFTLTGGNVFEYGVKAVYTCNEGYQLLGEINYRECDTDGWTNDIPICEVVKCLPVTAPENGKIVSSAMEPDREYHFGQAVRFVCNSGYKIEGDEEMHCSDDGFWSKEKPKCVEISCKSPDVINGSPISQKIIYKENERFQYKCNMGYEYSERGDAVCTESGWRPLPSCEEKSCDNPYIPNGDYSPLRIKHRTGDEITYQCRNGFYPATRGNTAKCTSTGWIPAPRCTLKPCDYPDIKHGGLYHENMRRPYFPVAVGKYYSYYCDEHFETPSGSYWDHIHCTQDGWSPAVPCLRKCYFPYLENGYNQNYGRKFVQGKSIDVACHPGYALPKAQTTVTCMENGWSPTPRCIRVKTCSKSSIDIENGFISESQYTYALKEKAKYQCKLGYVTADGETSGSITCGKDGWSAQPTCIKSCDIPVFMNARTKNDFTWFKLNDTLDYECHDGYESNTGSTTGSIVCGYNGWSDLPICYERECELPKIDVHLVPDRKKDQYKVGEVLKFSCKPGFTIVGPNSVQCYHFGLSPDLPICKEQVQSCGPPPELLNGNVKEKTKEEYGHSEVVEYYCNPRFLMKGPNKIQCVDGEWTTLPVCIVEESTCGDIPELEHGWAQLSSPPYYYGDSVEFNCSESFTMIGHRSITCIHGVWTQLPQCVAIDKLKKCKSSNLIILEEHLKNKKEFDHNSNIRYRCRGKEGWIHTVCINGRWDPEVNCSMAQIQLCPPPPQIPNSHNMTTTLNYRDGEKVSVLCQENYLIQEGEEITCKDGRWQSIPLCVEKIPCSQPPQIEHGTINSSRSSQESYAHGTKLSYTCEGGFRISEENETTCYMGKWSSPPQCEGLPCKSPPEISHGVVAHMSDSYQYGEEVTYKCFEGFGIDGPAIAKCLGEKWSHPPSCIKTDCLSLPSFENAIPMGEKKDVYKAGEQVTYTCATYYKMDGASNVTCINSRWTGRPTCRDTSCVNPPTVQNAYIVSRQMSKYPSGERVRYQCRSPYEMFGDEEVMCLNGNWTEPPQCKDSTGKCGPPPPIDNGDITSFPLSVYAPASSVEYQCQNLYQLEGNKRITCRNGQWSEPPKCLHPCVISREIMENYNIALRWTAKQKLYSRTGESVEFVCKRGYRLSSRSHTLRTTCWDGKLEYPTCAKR

Target: recombinant human PTX3 (long pentraxin 3) (human) (UniProt P26022)
Experiment: SPR; PTX3 immobilised (surface-captured) on sensorchips; FH, C3b or a mixture of C3b and FH injected; both purified

binding: binds
Substance: factor H (from UniProt P08603 19-1231)
